Source: article PMC8447601

What was measured:
[1] = molecular target: T1, GFP‐SnRK1α2 (Arabidopsis thaliana) (UniProt P92958); assay: co-IP; α-GFP microbeads on extracts of 10-day-old Arabidopsis seedlings expressing the GFP fusion; no-salt lysis buffer (50 mM Tris pH 8.0, 0.1% Nonidet P-40), 1 h at 4°C; native TSN detected with α-TSN; seedlings NS (23°C), HS (39°C for 60 min) or NaCl for 60 min
T1 sequence: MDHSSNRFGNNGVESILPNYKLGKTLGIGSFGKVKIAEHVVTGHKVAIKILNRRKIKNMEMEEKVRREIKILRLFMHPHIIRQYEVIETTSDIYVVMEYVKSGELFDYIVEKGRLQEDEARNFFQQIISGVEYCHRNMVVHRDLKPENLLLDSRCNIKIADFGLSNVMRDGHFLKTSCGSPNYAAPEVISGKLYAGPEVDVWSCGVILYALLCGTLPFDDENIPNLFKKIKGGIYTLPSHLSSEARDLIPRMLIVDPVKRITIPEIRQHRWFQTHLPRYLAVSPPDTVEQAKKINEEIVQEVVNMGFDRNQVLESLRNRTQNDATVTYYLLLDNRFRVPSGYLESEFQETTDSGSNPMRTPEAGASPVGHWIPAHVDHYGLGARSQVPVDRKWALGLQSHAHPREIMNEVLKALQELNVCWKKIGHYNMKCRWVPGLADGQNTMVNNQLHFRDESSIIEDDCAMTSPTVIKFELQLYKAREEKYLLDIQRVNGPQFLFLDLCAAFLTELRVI

[2] = molecular target: T2, GFP‐SnRK1α1 (Arabidopsis thaliana) (UniProt Q38997); assay: as above
T2 sequence: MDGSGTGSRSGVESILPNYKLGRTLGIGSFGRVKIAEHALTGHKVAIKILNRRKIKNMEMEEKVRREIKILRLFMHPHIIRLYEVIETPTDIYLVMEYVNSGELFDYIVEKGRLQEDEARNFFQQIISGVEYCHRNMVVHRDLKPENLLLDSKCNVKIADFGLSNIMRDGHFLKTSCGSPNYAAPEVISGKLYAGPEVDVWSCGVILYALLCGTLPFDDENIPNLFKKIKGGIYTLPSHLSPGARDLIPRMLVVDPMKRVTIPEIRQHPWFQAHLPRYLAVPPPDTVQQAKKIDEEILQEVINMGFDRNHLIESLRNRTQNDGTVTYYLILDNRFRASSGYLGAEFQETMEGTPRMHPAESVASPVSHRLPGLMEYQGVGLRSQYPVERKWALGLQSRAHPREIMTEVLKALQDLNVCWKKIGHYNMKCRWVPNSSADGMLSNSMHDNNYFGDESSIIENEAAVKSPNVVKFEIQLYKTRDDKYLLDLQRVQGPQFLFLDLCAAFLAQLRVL

binding [1]: binds
binding [2]: binds
Substance: native TSN (endogenous Tudor staphylococcal nuclease, 107 kD)

These are yes or no findings as the source states them, for the method shown. In cells and extracts the contact can be indirect. Binding calls can cover weak binding; strength is not graded here. Tags and fused reporters may be left off the sequences shown.
